PubChem BioAssay AID504774 | Drosophila RNAi Screening Center | 2011
The screen tested about 23,000 reagents; this is a random part of those that have a named target and a result. 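Values are quantile-normalised luminescence on an arbitrary scale; higher means more cells surviving MMS.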 The numbers tell different reagents against one gene apart. A plus sign joins genes that one reagent is predicted to hit. Reagent sequences are not shown.

- Screen: 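Knock-downs that shift viability of MMS-exposed cells relative to untreated ones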 (primary screen)
- Cells: Drosophila Kc167 cells
- Knock-down reagent: long dsRNA against Drosophila genes, about 0.25 µg dsRNA per well
- Time to read-out: about 6 days: 3 days knock-down, then 3 days with or without MMS
- Challenge: methyl methanesulphonate 0.004% (w/v) for 3 days after knock-down
- Measurement: 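Viability in wells given MMS, read as ATP luminescence, normalised by quantiles plate by plate and averaged across replicates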
- Direction: mean viability with MMS and viability with MMS: higher = more surviving cells after MMS

target gene	dsRNA no.	mean viability with MMS	viability with MMS, replicate 1	viability with MMS, replicate 2
CG13033	1	3.63e6	3.90e6	4.30e6
CG5989	1	3.49e6	3.93e6	3.98e6
CG18577	1	3.45e6	3.94e6	3.91e6
verm	1	3.49e6	3.92e6	3.98e6
Rbcn-3B	1	3.42e6	3.95e6	3.83e6
CG17078	1	3.44e6	3.83e6	3.93e6
CG33233	1	3.49e6	4.00e6	3.91e6
CG30159	1	3.69e6	4.14e6	4.02e6
Hen1	1	3.74e6	4.18e6	4.29e6
Hen1	2	3.65e6	3.96e6	4.10e6
CG42788	1	3.64e6	4.10e6	4.19e6
CG42788	2	3.41e6	3.98e6	3.73e6
CG42788	3	3.48e6	3.97e6	3.93e6
CG7632	1	3.60e6	4.25e6	3.90e6
Ugt37C1	1	3.55e6	4.01e6	4.04e6
COX7B	1	3.43e6	3.85e6	3.89e6
Bcat	1	3.61e6	4.10e6	4.06e6
Mvl	1	3.46e6	3.93e6	3.93e6
CG8745	1	3.42e6	3.78e6	3.94e6
CG8745	2	3.36e6	3.81e6	3.76e6
CG8745	3	3.58e6	4.06e6	4.02e6
CG31910 + snoRNA:Me28S-G2743 (retired record)	1	3.37e6	3.89e6	3.81e6

Looked up above:
For “viability with MMS, replicate 2”, CG7632 shows 3.90e6
Under “viability with MMS, replicate 2”, COX7B is entered as 3.89e6
For “mean viability with MMS”, Rbcn-3B reads 3.42e6
For “viability with MMS, replicate 1”, CG8745 #3 is entered as 4.06e6
CG42788 #3, viability with MMS, replicate 2 → 3.93e6
CG8745 #1, mean viability with MMS → 3.42e6

Further records follow.
target gene	dsRNA no.	mean viability with MMS	viability with MMS, replicate 1	viability with MMS, replicate 2
ALiX	1	3.61e6	4.08e6	4.10e6
LManVI	1	3.55e6	3.90e6	4.15e6
EMC7	1	3.72e6	4.13e6	4.27e6
Muc91C	1	3.57e6	3.94e6	4.14e6
Muc91C	2	3.35e6	3.91e6	3.79e6
CG31313	1	3.50e6	3.96e6	3.99e6
Nnf1a	1	3.54e6	3.91e6	4.11e6
exd	1	3.55e6	4.06e6	4.01e6
CG5013	1	3.55e6	4.17e6	3.89e6
CG31287	1	3.51e6	4.04e6	3.93e6
TRAM	1	3.69e6	4.25e6	4.10e6
TRAM	2	3.66e6	4.23e6	4.06e6
Setd3	1	3.49e6	4.07e6	3.86e6
Setd3	2	3.45e6	4.03e6	3.80e6
Qsox1	1	3.73e6	4.00e6	3.98e6
CG15548	1	3.53e6	3.96e6	4.03e6
Wdr24	1	3.58e6	4.07e6	4.05e6
nanos	1	3.33e6	3.83e6	3.77e6
Sptr	1	3.74e6	4.23e6	4.19e6
CG30278	1	3.32e6	3.87e6	3.85e6
CG12171	1	3.56e6	4.08e6	4.00e6
Muc68D	1	3.59e6	4.08e6	4.06e6
CG33521	1	3.57e6	4.10e6	3.98e6
CG33521	2	3.68e6	4.13e6	4.21e6
CG33521	3	3.63e6	4.09e6	4.10e6
Ada	1	3.40e6	3.89e6	3.85e6
CG2841	1	3.59e6	4.05e6	4.06e6
CG2841	2	3.44e6	3.86e6	3.94e6
CG2841	3	3.67e6	4.10e6	4.15e6
Nup154	1	3.21e6	3.58e6	3.61e6
CG11983	1	3.54e6	4.09e6	3.94e6
Vha16-3	1	3.49e6	3.90e6	4.00e6
CG32793	1	3.71e6	4.20e6	4.18e6
CG32793	2	3.56e6	4.02e6	4.05e6
Inos	1	3.49e6	3.90e6	4.05e6
CG9902	1	3.61e6	4.08e6	4.10e6
CG1552	1	3.61e6	4.04e6	4.13e6
CG8292	1	3.75e6	4.01e6	4.49e6
CG15517	1	3.57e6	3.99e6	4.10e6
CG14196	1	3.61e6	4.16e6	4.00e6
bdwf	1	3.52e6	3.98e6	4.00e6
CG4815	1	3.75e6	4.30e6	4.17e6
twy	1	3.72e6	4.11e6	4.24e6
CG12848	1	3.49e6	3.96e6	3.94e6
Achl	1	3.56e6	4.02e6	4.02e6
CG14073	1	3.42e6	3.73e6	3.99e6
